Measurements reported in the supplement of paper PMC7666118.
The other results are listed elsewhere or left out.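 How the source made its calls: active = dose-dependent thermal stabilisation significant by F-test of dose-response against flat model at 10% FDR; inactive = not significant.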

Chains of the proteins cited; added tags and fusions are not shown. Lines headed by an entry give the natural chain unless they say otherwise; changes in a name come on top.
UniProt Q9BWD1: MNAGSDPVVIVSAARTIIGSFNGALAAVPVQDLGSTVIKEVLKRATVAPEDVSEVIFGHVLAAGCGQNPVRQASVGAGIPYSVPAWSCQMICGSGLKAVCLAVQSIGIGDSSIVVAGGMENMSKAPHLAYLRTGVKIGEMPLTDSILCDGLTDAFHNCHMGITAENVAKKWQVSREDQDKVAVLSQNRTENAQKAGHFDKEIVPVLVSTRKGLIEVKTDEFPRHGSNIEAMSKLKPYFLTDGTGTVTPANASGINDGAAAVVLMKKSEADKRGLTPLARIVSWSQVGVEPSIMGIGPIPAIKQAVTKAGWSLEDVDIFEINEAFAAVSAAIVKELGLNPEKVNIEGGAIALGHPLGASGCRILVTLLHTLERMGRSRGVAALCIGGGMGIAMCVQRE
UniProt Q9H8Y5: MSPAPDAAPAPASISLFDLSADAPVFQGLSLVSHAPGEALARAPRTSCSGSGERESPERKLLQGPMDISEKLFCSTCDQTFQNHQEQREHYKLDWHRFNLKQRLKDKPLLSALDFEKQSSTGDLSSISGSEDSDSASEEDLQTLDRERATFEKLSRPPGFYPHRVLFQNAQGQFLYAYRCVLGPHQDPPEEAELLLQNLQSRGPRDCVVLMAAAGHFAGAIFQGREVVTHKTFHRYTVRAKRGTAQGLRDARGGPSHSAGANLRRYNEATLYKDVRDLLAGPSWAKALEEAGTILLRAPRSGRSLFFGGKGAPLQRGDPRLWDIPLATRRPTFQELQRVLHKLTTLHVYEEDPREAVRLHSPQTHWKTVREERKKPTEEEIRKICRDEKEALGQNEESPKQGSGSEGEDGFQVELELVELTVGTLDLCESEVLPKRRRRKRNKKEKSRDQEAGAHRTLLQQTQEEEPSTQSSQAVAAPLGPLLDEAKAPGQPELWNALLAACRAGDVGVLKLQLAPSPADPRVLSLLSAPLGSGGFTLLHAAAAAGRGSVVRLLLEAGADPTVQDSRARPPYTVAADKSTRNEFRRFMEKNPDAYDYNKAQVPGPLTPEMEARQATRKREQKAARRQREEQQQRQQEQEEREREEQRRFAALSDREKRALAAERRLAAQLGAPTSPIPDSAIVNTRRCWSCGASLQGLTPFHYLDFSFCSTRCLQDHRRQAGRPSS
UniProt Q9UPW5: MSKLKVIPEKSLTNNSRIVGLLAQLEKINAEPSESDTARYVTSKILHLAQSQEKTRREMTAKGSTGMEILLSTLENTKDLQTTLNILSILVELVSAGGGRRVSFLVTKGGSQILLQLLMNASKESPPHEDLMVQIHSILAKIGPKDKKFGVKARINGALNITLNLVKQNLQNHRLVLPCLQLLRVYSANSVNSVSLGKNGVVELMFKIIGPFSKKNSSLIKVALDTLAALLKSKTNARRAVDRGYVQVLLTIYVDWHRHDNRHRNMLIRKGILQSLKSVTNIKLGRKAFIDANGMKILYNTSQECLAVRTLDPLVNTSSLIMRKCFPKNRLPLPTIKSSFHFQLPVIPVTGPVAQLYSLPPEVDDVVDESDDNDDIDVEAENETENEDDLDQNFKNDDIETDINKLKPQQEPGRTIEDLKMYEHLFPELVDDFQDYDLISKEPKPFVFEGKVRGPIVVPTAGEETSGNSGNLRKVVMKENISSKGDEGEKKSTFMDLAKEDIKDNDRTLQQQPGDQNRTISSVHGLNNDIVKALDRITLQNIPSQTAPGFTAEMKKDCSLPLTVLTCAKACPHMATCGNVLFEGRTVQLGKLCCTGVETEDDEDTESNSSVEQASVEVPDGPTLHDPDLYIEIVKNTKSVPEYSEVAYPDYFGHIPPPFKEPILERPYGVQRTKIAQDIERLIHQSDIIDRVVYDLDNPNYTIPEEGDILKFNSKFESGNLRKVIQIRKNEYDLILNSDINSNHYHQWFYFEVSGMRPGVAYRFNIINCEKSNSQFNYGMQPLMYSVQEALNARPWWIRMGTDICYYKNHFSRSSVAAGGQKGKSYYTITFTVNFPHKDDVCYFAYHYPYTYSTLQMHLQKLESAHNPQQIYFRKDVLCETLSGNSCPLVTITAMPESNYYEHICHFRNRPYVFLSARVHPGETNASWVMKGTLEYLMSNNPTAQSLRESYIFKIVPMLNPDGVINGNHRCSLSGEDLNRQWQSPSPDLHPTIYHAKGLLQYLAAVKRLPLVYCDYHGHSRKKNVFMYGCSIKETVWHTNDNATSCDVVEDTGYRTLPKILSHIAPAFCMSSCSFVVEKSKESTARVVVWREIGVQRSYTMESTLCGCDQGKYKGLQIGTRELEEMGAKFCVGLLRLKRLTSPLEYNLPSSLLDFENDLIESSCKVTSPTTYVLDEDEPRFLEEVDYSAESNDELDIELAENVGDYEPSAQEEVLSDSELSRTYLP
UniProt Q9H3P7: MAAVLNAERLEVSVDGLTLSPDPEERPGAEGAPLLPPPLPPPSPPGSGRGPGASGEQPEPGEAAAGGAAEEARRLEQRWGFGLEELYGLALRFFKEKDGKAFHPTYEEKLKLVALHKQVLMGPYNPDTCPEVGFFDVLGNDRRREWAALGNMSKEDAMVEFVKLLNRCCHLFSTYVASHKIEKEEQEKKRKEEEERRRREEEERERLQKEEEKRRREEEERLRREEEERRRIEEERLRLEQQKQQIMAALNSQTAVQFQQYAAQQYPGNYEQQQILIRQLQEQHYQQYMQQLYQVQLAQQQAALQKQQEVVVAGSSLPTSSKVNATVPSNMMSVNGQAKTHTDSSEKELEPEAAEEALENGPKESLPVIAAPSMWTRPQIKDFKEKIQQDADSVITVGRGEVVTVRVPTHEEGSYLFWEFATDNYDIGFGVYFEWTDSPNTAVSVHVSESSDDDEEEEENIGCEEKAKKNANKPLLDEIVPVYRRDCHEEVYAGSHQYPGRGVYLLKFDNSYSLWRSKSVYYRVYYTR
UniProt P14621: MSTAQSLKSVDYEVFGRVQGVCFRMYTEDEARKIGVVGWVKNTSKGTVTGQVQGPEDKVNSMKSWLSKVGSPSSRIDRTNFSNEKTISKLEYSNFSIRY
UniProt Q96Q42: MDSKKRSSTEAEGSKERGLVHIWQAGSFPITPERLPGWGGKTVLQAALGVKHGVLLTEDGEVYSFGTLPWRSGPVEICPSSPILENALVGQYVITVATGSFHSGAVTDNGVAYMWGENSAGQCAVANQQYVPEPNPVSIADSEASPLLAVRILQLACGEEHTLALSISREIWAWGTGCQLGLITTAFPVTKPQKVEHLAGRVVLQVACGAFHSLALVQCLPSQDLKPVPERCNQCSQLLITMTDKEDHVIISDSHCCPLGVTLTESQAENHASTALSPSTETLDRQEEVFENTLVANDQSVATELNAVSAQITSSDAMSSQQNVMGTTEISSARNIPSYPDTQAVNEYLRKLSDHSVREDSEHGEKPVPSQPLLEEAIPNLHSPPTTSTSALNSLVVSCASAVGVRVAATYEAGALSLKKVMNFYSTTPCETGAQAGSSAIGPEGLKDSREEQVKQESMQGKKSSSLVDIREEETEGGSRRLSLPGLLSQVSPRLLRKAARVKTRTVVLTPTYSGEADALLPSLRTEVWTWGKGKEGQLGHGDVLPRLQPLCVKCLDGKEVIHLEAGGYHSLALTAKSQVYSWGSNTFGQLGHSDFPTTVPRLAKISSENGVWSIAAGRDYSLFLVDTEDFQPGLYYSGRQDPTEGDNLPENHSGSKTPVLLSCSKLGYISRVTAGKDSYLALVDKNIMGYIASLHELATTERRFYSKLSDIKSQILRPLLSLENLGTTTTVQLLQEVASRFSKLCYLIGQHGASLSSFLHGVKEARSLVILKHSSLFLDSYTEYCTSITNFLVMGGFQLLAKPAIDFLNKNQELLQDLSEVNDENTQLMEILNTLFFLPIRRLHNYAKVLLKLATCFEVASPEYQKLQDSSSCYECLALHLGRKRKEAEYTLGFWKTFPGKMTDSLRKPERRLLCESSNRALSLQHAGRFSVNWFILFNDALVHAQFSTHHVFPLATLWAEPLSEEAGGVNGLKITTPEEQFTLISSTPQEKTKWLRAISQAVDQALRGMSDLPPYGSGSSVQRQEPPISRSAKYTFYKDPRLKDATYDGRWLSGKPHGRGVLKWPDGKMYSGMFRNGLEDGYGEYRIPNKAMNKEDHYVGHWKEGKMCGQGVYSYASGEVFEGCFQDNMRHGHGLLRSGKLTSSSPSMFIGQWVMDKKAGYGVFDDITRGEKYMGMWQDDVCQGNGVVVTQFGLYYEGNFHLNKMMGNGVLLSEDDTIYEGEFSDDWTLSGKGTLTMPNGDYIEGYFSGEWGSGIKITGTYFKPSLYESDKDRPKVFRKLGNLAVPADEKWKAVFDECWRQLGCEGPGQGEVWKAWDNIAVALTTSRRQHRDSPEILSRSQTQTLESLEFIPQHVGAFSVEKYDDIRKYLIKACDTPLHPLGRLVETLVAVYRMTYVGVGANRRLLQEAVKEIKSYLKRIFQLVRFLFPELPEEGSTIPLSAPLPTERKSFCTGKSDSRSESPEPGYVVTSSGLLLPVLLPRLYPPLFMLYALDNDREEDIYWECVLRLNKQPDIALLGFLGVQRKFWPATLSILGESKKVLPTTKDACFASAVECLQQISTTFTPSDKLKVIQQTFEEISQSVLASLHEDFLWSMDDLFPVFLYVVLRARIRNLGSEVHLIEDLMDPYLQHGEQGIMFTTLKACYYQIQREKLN
UniProt P02765: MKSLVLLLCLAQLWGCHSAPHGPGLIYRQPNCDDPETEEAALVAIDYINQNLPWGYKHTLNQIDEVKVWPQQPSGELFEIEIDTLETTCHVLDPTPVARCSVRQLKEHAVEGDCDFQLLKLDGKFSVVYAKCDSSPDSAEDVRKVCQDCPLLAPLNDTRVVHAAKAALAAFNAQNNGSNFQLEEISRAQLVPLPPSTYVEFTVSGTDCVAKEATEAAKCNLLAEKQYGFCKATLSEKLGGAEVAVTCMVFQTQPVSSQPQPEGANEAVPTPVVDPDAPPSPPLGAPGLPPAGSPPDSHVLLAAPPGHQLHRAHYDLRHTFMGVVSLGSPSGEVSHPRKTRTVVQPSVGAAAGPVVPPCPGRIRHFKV
UniProt P00519, whole entry: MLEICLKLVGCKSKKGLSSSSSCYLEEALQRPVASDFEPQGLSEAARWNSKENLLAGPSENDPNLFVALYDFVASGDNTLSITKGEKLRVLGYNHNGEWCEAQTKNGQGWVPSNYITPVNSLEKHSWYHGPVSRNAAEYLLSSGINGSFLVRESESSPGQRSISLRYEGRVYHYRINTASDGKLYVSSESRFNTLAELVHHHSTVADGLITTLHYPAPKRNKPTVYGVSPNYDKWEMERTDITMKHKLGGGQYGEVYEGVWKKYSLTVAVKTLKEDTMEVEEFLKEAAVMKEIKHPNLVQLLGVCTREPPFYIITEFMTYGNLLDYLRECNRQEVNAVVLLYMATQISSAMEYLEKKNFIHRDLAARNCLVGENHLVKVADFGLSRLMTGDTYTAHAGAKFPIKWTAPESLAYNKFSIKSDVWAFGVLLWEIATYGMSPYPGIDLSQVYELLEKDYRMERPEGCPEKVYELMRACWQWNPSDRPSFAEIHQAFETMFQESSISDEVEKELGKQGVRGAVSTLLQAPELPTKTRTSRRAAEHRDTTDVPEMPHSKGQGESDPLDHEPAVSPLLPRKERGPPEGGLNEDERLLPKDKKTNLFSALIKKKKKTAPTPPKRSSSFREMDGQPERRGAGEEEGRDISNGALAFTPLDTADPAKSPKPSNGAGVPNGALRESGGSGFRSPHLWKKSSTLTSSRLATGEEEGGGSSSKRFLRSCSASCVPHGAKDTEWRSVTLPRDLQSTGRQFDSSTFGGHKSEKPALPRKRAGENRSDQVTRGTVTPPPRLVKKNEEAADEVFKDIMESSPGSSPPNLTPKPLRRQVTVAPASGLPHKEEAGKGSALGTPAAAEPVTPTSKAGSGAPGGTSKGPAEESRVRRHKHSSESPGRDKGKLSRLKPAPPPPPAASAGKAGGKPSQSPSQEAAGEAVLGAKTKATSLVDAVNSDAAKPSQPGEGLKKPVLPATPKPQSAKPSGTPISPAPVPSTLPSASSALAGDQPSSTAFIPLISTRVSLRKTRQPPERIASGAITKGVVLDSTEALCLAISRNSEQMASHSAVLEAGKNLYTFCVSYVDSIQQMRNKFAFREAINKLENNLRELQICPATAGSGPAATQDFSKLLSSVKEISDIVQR
UniProt P24588, whole entry: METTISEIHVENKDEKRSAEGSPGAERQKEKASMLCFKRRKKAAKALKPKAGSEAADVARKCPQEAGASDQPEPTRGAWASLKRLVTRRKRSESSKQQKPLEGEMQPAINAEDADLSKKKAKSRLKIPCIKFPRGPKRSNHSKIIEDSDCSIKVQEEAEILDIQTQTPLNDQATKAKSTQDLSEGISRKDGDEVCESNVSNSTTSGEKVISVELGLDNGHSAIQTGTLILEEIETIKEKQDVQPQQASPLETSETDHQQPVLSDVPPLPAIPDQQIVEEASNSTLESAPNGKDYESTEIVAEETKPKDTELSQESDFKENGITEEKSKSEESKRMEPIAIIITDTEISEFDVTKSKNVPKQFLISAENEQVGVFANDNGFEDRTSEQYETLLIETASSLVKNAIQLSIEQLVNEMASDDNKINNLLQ

compound: Nc1nc2c(ncn2[C@@H]2O[C@H](COP(=O)(O)OP(=O)(O)OP(=O)(O)O)[C@@H](O)[C@H]2O)c(=O)[nH]1; experiment: dose-dependent thermal stabilisation call (2D-TPP, DLPTP, 10% FDR) (binary (1 = stabilised)); higher = stabilised by the compound; conditions: system: Jurkat gel-filtered lysate; concentration range 1-500 µM

dose-dependent thermal stabilisation call, inactive:
ACAT2 (UniProt Q9BWD1) 0, ANKZF1 (UniProt Q9H8Y5) 0, AGTPBP1 (UniProt Q9UPW5) 0, ACBD3 (UniProt Q9H3P7) 0, ACYP2 (UniProt P14621) 0, ALS2 (UniProt Q96Q42) 0, AHSG (UniProt P02765) 0, ABL1 (UniProt P00519) 0, AKAP5 (UniProt P24588) 0
